# ± gives the standard deviation. The list shows a part of the results, in another mix than the full data. The uncertainty is large for many entries. The list shows a part of the results.
# Columns and labels:
# [1] = system: MIWI (PIWIL1) piRISC loaded with L1MC piRNA (30 nt); assay: pre-steady-state target cleavage rate (min^-1); higher = faster piRNA-guided slicing of the target; settings: guide: L1MC piRNA 5'p-UAACUAAAUACUAUGCAAGCUGUAGGUCCU;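 further: 1 nM active piRISC with 0.1 nM target library at 33 °C single turnover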
# How it was run: (§1)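 For Cleave-'n-Seq, a transcribed, DNA-blocked target RNA library […] met 1 nM active affinity-purified piRISC with one synthetic guide at 33 °C for 0–8 or 0–960 min in HEPES–potassium acetate buffer, with or without 500 nM GTSF1 partner protein. Uncleaved targets were sequenced and normalised to depth and weakly complementary targets, with three trials pooled and k3 capped at 0.0001 min^-1. A burst-and-steady-state fit supplied the pre-steady-state cleavage rate.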
# [2] = system: EfPiwi piRISC loaded with L1MC piRNA (26 nt); assay: pre-steady-state target cleavage rate (min^-1); guide: L1MC piRNA 5'p-UAACUAAAUACUAUGCAAGCUGUAGG; MIWI and MILI are mouse PIWI proteins and EfPiwi is from a freshwater sponge; tags in brackets are library labels; higher = faster piRNA-guided slicing of the target
# How it was run: as §1
# [3] = auxiliary factor: none (no GTSF1)
# [4] = auxiliary factor: 500 nM Ephydatia muelleri Gtsf1
# [5] = auxiliary factor: none (no Gtsf1)
# [6] = auxiliary factor: 500 nM mouse GTSF1
Sequence,"pre-steady-state target cleavage rate [1, 3]","pre-steady-state target cleavage rate [2, 4]","pre-steady-state target cleavage rate [2, 5]","pre-steady-state target cleavage rate [1, 6]"
UCCUGGAUGUCGUUGCAUCGUAUUUAGUUA,0.00124 ± 0.0067,0.00198 ± 0.004,0.000319 ± 0.018,
UCCUGGAUGUGCUUGGUAAGUAUUUAGAAA,0.000649 ± 0.012,0.00031 ± 0.015,0.000329 ± 0.033,
UCCUGCUACUCGUUGCAUAGUAUUUAGAAA,0.00186 ± 0.0036,0.00275 ± 0.0031,0.000771 ± 0.009,0.0557 ± 0.014
UCCUGGAUGUCGAACGUAAGGUAUUUAGUUA,0.000311 ± 0.019,0.000102 ± 0.03,0.00015 ± 0.033,
UCCUGGUACAGCUACCAUAGUAUUUAGUUA,0.0023 ± 0.0028,0.00432 ± 0.0019,0.000949 ± 0.0086,
UCCUGCUACAGCUUGCAUAGUCAUUUAGUUA,0.00362 ± 0.0031,0.00203 ± 0.003,0.000347 ± 0.016,0.0744 ± 0.02
UCCUGGAUGUCGAAGCAUAGUAUCUAGUUA,0.000922 ± 0.0061,0.00129 ± 0.0053,0.000241 ± 0.027,
UCCUGGAUGUCCUUGCAUAGAUAUUUAGUUA,0.00231 ± 0.0036,0.00146 ± 0.0046,0.000333 ± 0.015,0.003 ± 0.0041
UCCUGGAUGUGGAUGCAUAGUAUUUAGUAA,0.00157 ± 0.0063,0.00172 ± 0.0032,0.00016 ± 0.042,0.00318 ± 0.0036
UCCUGGAUGUCGAAGCAUACUUUUUAGUUA,0.000454 ± 0.012,0.000209 ± 0.013,0.000172 ± 0.03,
UCCUGGAUGUCCUUGCAUAGUAUUAUAGUUA,0.00302 ± 0.0035,0.00424 ± 0.0041,0.000837 ± 0.0096,
UCCUGGAUGUCGAUGCCUAGUAUUUAGUUA,0.000538 ± 0.011,0.000429 ± 0.0068,0.000148 ± 0.041,0.000752 ± 0.01
UCCUGGAUCAGCUUGCAUAGAUAUUACAAA,0.000303 ± 0.0088,0.00117 ± 0.0093,0.000637 ± 0.016,
UCCUGGAUGUCGAAGCAUACUAUUUAGAUA,0.000608 ± 0.014,0.0007 ± 0.009,0.000197 ± 0.028,
UCCUGGAUGUCCAUGCAUAGUAUUUAGAUA,0.00154 ± 0.0054,0.000499 ± 0.011,< 0.0001,0.00405 ± 0.0043
UCCUGGAUGUGCUUGCAUUCAAUUUAGUUA,0.000702 ± 0.0074,0.000332 ± 0.011,0.000124 ± 0.074,0.000733 ± 0.014
UCCUGCUACAGCAUCCAUAGUAUUUAGUUA,0.000884 ± 0.0082,0.00233 ± 0.0017,< 0.0001,
UCCUGGAUGUGGUUGCAUAGUAUAUAGUUA,0.00243 ± 0.0046,0.00747 ± 0.0056,0.000612 ± 0.022,
UCCUGGAUGUGCUUGCAUAGUUAUUUAGUUA,0.00241 ± 0.0041,0.000945 ± 0.0072,0.000543 ± 0.018,0.00378 ± 0.0046
UCCUGGAUGUCGAUGCUUAGUAUUUAGUUA,0.000784 ± 0.0079,0.00134 ± 0.0043,0.000493 ± 0.013,0.000734 ± 0.014
UCCUGGAUGUCCUAGCAUAGUUUUUAGUUA,0.00113 ± 0.0056,0.00038 ± 0.0057,0.000279 ± 0.024,0.00464 ± 0.0046
UCCUGCUACAGCUACGAUAGUAUUUAGUUA,0.00159 ± 0.0029,0.0028 ± 0.0031,0.000882 ± 0.0061,

# Quoted at random: 2 entries already listed
Sequence,"pre-steady-state target cleavage rate [1, 3]","pre-steady-state target cleavage rate [2, 4]","pre-steady-state target cleavage rate [2, 5]","pre-steady-state target cleavage rate [1, 6]"
UCCUGGAUGUCCUUGCAUAGAUAUUUAGUUA,0.00231 ± 0.0036,0.00146 ± 0.0046,0.000333 ± 0.015,0.003 ± 0.0041
UCCUGGAUGUGCUUGCAUUCAAUUUAGUUA,0.000702 ± 0.0074,0.000332 ± 0.011,0.000124 ± 0.074,0.000733 ± 0.014

# Reference: the supplement of paper PMC10338343
